Results from paper doi:10.1101/2023.04.20.537746.
These are yes or no findings as the source states them, for the method shown. Binding seen in cells or lysates may run through a third protein. Some results given as binding are weak or reduced against the parent protein; the word gives no strength.

Protein sequences, listed by entry. Tags and fused reporters are not part of them. Residues count along the entry.
UniProt P35968, residues 20-1356: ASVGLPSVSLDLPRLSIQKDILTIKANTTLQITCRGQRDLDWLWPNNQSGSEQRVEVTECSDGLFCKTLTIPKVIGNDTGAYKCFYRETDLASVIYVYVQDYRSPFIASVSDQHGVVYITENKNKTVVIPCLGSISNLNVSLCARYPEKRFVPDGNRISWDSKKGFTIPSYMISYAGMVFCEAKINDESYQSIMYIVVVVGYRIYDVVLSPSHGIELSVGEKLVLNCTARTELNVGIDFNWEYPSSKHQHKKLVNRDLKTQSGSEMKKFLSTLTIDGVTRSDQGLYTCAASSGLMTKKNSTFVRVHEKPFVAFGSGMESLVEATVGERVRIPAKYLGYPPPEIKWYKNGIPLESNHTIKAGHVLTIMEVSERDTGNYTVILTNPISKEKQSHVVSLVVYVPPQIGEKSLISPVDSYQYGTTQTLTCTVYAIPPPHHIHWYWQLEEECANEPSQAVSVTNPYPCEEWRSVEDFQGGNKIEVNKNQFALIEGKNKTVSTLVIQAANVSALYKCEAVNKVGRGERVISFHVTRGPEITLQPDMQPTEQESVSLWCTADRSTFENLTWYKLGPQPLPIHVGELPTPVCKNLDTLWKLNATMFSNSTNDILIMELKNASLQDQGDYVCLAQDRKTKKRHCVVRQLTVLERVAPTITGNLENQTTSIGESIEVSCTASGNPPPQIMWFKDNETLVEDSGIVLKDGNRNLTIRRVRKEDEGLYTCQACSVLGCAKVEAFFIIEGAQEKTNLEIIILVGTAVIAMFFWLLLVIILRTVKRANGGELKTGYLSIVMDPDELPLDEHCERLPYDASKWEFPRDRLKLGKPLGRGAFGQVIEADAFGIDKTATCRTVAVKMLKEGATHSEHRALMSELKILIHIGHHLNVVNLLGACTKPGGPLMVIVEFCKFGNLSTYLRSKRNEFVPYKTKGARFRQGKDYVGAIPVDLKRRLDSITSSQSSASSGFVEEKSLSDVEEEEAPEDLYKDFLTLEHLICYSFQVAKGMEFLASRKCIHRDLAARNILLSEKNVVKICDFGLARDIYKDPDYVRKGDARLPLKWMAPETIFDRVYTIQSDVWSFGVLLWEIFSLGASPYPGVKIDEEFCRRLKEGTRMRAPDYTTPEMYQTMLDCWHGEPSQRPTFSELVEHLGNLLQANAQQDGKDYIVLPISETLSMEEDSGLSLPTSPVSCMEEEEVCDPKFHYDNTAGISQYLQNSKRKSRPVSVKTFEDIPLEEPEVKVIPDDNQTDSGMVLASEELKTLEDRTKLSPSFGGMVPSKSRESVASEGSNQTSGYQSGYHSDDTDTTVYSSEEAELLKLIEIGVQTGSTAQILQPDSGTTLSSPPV
UniProt Q03135: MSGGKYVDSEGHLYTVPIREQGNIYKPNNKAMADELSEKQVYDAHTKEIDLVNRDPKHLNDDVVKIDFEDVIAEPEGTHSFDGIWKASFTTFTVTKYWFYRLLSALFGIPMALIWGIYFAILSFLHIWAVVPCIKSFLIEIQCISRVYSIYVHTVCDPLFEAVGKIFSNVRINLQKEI
UniProt P46935: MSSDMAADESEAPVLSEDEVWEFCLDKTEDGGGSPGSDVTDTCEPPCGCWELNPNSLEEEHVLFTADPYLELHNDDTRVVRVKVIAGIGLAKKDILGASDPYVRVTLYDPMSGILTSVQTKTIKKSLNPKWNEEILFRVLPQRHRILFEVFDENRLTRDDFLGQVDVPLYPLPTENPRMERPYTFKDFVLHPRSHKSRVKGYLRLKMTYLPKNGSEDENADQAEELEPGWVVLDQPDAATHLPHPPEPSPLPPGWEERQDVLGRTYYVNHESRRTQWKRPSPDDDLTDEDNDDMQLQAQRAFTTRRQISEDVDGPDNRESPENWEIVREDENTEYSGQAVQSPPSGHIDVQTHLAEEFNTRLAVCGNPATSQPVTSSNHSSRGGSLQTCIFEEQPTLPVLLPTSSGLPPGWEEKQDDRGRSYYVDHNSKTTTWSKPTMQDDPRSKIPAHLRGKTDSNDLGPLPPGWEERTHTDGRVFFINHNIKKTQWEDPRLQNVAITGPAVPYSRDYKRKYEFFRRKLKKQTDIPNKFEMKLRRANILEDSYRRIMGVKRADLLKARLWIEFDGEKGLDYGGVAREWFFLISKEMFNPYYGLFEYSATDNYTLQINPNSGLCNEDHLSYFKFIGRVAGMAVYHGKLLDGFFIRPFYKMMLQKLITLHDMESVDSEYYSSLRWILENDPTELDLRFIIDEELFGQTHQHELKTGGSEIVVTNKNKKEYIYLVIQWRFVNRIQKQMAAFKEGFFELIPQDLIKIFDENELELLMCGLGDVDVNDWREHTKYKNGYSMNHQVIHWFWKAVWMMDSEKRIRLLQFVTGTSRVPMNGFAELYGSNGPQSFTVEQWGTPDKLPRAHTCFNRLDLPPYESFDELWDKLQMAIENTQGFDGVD

How the values were obtained:
[1] = biological target: VEGFR-2 (human, endogenous in HUVECs) (human (endogenous in HUVECs)) (UniProt P35968); test: co-IP
[2] = biological target: VEGFR-2 (mouse, endogenous in mPMVECs) (mouse (endogenous in mPMVECs)) (UniProt P35918); test: co-IP

| binding [1] | binding [2] | Substance |
| --- | --- | --- |
| binds |  | Caveolin-1 (endogenous in HUVECs) (from UniProt Q03135 1-178) |
|  | binds | Nedd4 (E3 ubiquitin ligase), endogenous in mPMVECs (from UniProt P46935 1-887) (enzyme) |
|  | binds | c-Cbl (E3 ubiquitin ligase), endogenous in mPMVECs (from UniProt P22682 1-913) (enzyme) |
